## Primary screen of a compound library

The filed quantity is “Percent Effect” (%). The controls that fix the scale are not given in the record; negative values are as filed. This is an unselected part of the compounds tested.

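Whole-parasite assay of Trypanosoma brucei over 72 hours; the read-out is not stated. Compounds at 30 µM. The record gives no direction; compounds that gave an IC50 in retests scored well above the rest, so higher reads as stronger inhibition. Values scatter widely below zero; nearly all retest evidence comes from the higher of the two concentrations used. Size under these conditions: about 64,000 compounds, about 940 of them at 50% or above in at least one test.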

{"smiles": "Cc1cc(-n2cccn2)ccc1CN1C[C@@H](CN(C)C)[C@@H](CO)C1", "Percent Effect": 10.34}
{"smiles": "CCCS(=O)(=O)NC(C)C(=O)NCc1ccc(N2CCCC2)nc1", "stereo": "stereo not given", "Percent Effect": -14.57}
{"smiles": "CC(C)c1nccn1C1CCCN(C(=O)c2cn3cccnc3n2)C1", "stereo": "stereo not given", "Percent Effect": -2.568}
{"smiles": "[H][C@@]12CN(Cc3ccsc3)CCO[C@]1([H])CN(Cc1cc(C)on1)C2", "Percent Effect": -128.5}
{"smiles": "CC(C(=O)NCc1cn2cc(Br)ccc2n1)S(C)(=O)=O", "stereo": "stereo not given", "Percent Effect": 20.37}
{"smiles": "[H][C@]12COC[C@H](NS(C)(=O)=O)[C@@]1([H])CN(Cc1ccco1)C2", "Percent Effect": -6.332}
{"smiles": "NC(=O)C1CCN(C(=O)NCc2cccnc2OCC(F)(F)F)C1", "stereo": "stereo not given", "Percent Effect": -17.07}
{"smiles": "O=C(CCn1cccc1)NCc1ccc(CN2CCCCCC2)o1", "Percent Effect": -4.663}
{"smiles": "[H][C@]12CCN(C(=O)c3cccc(C)c3)C[C@@]1([H])OCCN(c1ncccn1)C2", "Percent Effect": -77.54}
{"smiles": "COc1ccccc1CCN[C@@H]1c2ccccc2C2(CCNCC2)[C@H]1O", "Percent Effect": 6.026}
{"smiles": "CC(C)Cn1cc(NC(=O)NCC2CCN(c3ccccc3)C2)cn1", "stereo": "stereo not given", "Percent Effect": -40.49}
{"smiles": "C[C@@H]1CN(C(=O)CCc2cnn(C)c2)C[C@@]1(O)C1CCC1", "Percent Effect": -20.57}
{"smiles": "COCC1(Nc2nc(C)nc3c2cnn3C)CCCC1", "Percent Effect": -25.81}
{"smiles": "O=C(NCc1cnn2cccnc12)C1CC2(CCNCC2)CN1", "stereo": "stereo not given", "Percent Effect": 54.89}
{"smiles": "Cc1ccc(C(=O)N2CCN(S(C)(=O)=O)CC2)cc1N1CCNC1=O", "Percent Effect": 39.07}
{"smiles": "O=C(NCCc1cccnc1)NCCc1cccs1", "Percent Effect": -28.11}
{"smiles": "CC(C)CCn1cc(C(C(=O)O)N2CCSCC2)cn1", "stereo": "stereo not given", "Percent Effect": -21.14}
{"smiles": "CC(=O)N1CCC2(C1)c1ccccc1S(=O)(=O)N2Cc1ccccc1", "stereo": "stereo not given", "Percent Effect": -10.65}
{"smiles": "NC(=O)c1nc2c(s1)CCN(C(=O)Nc1ccccc1)CC2", "Percent Effect": -34.44}
{"smiles": "N#CC(NC(=O)CC1CCSCC1)c1cnn(-c2ccccc2)c1", "stereo": "stereo not given", "Percent Effect": -48.31}
{"smiles": "Cc1cc(Br)c2c(c1)C1(CC(=O)Nc3c1cnn3C(C)C)C(=O)N2", "stereo": "stereo not given", "Percent Effect": -29.65}
{"smiles": "N#CC(Sc1nnnn1C1CCOCC1)C1CCCCC1", "stereo": "stereo not given", "Percent Effect": -13.07}
{"smiles": "CCN(CC)C(=O)CN1CCc2nc(C3CCNCC3)nc(NC)c2C1.Cl", "Percent Effect": -15.23}
{"smiles": "O=C(Cc1cccs1)N1CCOC(c2cccc(O)c2)C1", "stereo": "stereo not given", "Percent Effect": -22.89}
{"smiles": "NC(=O)CSCC(=O)N1CCc2cc(Cl)cc(Cl)c2C1", "Percent Effect": -7.412}
{"smiles": "O=C(NCCc1c[nH]cn1)c1ccc(S(=O)(=O)NC2CCCC2)cc1", "Percent Effect": -50.71}
{"smiles": "CC(C)C1SCC(=O)Nc2c1cnn2-c1ccc(Cl)cc1F", "stereo": "stereo not given", "Percent Effect": -38.02}
{"smiles": "O=C(O)C(F)(F)F.O=C(O)C(F)(F)F.O=C(O)c1cc2c(nc1-c1ccoc1)CCN(Cc1ccco1)CC2", "Percent Effect": -22.45}
{"smiles": "CCC1CCCCN1Cc1ncc(C(C)(C)C)o1", "stereo": "stereo not given", "Percent Effect": 100.3}
{"smiles": "COCCN(CCOC)c1nc2c(s1)c(C)nn2C", "Percent Effect": -61.26}
{"smiles": "CN(Cc1nccs1)C1CCN(c2cccc(-c3cscn3)c2)CC1", "Percent Effect": -33.72}
{"smiles": "CCCS(=O)(=O)N1Cc2ccnn2CC(c2nc(C)no2)C1.O=C(O)C(F)(F)F", "stereo": "stereo not given", "Percent Effect": -2.813}
{"smiles": "Cc1cccc(C(=O)NCCCN2CCc3ccccc3C2)c1C", "Percent Effect": 1.294}
{"smiles": "CCc1nnc2n1CCN(C(=O)CCOc1cc(C)ccc1C)C2", "Percent Effect": 9.619}
{"smiles": "CCc1nc(CN2CCCN(C(=O)c3c(C)noc3C)CC2)cs1", "Percent Effect": -5.925}
{"smiles": "CN(C)Cc1nc(C(C)(C)NC(=O)c2cccc3ccccc23)no1", "Percent Effect": -43.8}
{"smiles": "CCC(C(=O)NCc1ccncc1)N(c1ccc(F)cc1)S(C)(=O)=O", "stereo": "stereo not given", "Percent Effect": 3.968}
{"smiles": "Cc1ccc(N2CCCN(C(=O)c3cccc4c3ccn4C)CC2)nn1", "Percent Effect": -21.77}
{"smiles": "O=C(COc1coc(CN2CCCC2)cc1=O)NCc1ccccc1Cl", "Percent Effect": 13.16}
{"smiles": "O=C(CCc1nccs1)N1CCN(c2ccc(Br)cn2)CC1", "Percent Effect": 13.47}
{"smiles": "Cc1cnn(CCNc2nc(C)cc(N(C)C)n2)c1", "Percent Effect": 0.08999}
{"smiles": "O=C(c1cccc(NCc2cccc(F)c2)c1)N1CCC(O)CC1", "Percent Effect": -11.19}
{"smiles": "COCCn1cc(NCc2cn(C)nc2-c2ccncc2)cn1", "Percent Effect": -7.312}
{"smiles": "Cc1ccc(SCCN(C)C(=O)c2cn(CCN)nn2)cc1", "Percent Effect": 20.28}
{"smiles": "CC(O)(CNc1ccc(Cl)c(C#N)n1)c1ccsc1", "stereo": "stereo not given", "Percent Effect": -25.3}
{"smiles": "CC(C)(C)c1cc(NC(=O)CN(Cc2cccs2)Cc2cccs2)on1", "Percent Effect": -44.34}
{"smiles": "CC1CN(CC2CCCCC2)CCN1c1ccc2nncn2n1", "stereo": "stereo not given", "Percent Effect": -45.41}
{"smiles": "Cn1c(CS(=O)(=O)Cc2cccc(Cl)c2)cc(=O)n(C)c1=O", "Percent Effect": -9.112}

For reference, 3 entries once more:

SMILES,Percent Effect
Cc1cnn(CCNc2nc(C)cc(N(C)C)n2)c1,0.08999
CC(=O)N1CCC2(C1)c1ccccc1S(=O)(=O)N2Cc1ccccc1 (stereo not given),-10.65
CCc1nc(CN2CCCN(C(=O)c3c(C)noc3C)CC2)cs1,-5.925

Data taken from ChEMBL document CHEMBL3988442, “University of Dundee, Small-Polar-MMV Screening Library” (2021).